Results as given in the supplement of paper PMC10849652.
Some of the results follow.

The chains behind the UniProt entries cited, without tags or fusion partners. Where a name states a change or a piece, a line headed by the entry shows the natural chain unless it says otherwise.
UniProt Q9BRS2: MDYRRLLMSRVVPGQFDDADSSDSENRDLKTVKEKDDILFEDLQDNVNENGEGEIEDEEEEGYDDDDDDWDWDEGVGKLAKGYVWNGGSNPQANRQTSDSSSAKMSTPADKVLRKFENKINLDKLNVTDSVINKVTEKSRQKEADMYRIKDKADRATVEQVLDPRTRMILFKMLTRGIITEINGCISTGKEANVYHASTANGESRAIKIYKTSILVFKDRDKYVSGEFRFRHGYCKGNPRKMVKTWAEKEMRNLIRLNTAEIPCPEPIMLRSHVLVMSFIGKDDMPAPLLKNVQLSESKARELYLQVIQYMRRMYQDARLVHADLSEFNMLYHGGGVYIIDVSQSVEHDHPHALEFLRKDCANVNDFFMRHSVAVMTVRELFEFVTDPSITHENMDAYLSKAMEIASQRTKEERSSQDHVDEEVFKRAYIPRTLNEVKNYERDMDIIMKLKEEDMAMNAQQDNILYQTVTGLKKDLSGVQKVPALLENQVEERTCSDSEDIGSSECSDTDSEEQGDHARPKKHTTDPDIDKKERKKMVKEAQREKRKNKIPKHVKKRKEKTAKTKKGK
UniProt Q9H9A7: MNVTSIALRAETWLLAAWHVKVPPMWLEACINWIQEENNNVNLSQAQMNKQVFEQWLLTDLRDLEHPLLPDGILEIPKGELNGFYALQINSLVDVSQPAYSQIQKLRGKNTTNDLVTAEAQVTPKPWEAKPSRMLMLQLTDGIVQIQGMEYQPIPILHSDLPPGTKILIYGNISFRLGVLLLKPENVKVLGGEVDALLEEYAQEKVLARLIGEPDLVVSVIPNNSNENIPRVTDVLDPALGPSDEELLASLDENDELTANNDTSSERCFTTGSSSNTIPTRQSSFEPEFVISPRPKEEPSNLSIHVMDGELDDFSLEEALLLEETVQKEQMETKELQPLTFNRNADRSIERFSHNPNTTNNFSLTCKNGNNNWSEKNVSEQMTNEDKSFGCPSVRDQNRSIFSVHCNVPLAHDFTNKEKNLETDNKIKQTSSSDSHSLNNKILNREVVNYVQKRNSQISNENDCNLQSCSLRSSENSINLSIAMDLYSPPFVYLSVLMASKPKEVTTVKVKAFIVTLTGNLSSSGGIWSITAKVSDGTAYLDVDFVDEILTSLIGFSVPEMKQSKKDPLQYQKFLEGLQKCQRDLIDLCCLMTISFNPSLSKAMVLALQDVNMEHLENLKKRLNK
UniProt Q13129: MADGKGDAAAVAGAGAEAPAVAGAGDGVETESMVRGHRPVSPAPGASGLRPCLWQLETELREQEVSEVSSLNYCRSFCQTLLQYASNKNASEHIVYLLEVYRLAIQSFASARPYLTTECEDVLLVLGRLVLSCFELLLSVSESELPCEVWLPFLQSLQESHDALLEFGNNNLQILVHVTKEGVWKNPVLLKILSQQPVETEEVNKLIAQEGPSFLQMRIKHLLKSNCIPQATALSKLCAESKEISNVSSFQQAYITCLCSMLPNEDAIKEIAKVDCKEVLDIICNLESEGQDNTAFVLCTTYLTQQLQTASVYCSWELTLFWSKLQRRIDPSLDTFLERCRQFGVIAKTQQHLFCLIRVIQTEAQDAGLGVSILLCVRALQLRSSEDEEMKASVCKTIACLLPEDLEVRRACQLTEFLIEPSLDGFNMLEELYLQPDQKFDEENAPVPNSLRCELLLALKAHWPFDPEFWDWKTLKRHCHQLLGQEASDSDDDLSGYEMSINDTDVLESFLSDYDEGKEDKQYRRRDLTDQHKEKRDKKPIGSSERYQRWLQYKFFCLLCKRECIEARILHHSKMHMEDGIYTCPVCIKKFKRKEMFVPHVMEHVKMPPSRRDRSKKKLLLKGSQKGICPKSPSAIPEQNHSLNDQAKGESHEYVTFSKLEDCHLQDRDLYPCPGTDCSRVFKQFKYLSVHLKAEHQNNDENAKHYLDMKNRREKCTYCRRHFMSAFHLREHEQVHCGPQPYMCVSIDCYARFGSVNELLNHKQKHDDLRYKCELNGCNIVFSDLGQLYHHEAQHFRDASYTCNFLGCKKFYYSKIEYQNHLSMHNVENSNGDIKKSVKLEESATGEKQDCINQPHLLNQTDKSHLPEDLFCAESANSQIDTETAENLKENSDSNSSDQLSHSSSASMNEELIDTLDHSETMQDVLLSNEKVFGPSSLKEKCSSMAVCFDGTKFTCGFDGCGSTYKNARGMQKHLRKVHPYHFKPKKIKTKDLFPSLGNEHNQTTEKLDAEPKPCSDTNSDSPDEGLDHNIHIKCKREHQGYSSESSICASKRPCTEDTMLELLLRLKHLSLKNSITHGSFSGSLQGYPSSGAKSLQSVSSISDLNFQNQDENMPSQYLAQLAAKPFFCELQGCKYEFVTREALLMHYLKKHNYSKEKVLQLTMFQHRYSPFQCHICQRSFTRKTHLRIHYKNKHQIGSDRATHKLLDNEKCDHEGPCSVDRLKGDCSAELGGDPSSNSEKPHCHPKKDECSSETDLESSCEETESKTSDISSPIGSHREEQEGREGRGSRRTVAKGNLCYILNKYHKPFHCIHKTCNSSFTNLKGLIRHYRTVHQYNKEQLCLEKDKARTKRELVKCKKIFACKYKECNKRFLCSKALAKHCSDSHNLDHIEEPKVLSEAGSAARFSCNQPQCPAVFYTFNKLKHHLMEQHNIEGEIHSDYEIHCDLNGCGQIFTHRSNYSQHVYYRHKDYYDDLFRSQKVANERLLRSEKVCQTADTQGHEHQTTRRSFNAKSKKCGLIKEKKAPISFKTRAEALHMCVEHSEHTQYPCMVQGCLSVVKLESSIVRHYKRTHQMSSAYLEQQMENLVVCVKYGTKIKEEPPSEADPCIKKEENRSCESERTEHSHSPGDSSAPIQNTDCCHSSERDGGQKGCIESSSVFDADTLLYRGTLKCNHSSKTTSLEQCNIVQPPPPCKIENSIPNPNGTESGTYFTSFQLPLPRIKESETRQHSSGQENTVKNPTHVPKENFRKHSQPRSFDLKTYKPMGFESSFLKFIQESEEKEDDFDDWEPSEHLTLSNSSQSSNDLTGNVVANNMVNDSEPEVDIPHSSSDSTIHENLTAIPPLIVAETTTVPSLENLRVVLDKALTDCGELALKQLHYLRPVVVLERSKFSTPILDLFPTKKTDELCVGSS
UniProt Q9H6W3: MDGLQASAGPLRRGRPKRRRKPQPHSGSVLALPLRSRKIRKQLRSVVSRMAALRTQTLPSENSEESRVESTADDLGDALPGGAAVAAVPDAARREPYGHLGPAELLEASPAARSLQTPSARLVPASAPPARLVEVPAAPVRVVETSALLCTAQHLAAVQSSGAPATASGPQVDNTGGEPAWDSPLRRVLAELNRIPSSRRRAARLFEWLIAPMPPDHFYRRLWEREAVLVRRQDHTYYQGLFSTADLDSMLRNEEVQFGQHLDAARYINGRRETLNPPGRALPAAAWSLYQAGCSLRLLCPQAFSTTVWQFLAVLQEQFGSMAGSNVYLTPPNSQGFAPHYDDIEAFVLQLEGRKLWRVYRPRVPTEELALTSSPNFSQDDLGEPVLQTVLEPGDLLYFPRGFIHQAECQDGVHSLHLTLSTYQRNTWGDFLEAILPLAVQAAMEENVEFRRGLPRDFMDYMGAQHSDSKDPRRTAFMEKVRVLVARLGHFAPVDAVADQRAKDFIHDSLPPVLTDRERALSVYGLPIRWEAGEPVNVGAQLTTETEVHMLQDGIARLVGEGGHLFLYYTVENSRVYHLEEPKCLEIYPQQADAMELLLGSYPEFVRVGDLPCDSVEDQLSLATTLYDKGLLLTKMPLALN
UniProt Q4ADV7: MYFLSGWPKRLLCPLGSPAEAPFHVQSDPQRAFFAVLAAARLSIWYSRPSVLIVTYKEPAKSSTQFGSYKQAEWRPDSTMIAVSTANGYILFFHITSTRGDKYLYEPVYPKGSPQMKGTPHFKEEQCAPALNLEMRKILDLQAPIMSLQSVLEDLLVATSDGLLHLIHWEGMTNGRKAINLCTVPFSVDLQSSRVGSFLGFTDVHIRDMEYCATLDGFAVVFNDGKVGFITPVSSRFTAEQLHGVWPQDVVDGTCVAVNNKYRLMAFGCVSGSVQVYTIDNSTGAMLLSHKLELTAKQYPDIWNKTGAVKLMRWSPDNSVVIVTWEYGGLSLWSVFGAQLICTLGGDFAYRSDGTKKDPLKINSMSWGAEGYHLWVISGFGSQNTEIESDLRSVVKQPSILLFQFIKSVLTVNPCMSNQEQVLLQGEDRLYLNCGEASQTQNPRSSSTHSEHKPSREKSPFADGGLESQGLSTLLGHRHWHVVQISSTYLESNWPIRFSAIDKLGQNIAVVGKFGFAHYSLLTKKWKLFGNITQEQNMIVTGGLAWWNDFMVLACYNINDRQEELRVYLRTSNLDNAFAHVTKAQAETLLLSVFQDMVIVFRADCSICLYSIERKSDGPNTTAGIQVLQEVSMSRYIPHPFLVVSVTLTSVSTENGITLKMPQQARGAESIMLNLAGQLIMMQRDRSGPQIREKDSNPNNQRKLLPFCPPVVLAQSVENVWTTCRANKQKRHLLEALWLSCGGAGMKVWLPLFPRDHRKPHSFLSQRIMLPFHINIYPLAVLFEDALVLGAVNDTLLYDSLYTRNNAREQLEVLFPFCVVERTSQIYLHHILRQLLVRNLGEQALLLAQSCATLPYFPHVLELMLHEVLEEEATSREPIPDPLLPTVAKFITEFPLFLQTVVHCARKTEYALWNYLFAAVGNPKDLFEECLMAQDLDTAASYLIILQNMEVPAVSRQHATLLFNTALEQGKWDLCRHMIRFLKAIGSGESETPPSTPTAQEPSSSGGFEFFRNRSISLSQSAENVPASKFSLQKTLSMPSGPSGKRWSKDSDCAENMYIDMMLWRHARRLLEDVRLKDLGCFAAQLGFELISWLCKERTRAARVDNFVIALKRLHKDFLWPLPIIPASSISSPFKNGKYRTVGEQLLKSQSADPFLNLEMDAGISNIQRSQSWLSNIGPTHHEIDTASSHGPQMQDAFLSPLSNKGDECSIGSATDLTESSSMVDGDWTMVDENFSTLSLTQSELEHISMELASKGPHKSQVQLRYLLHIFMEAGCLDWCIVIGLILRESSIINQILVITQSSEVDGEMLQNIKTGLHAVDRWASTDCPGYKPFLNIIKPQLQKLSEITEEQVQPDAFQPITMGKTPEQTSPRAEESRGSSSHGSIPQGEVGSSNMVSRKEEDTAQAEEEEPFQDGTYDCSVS
UniProt Q5XPI4: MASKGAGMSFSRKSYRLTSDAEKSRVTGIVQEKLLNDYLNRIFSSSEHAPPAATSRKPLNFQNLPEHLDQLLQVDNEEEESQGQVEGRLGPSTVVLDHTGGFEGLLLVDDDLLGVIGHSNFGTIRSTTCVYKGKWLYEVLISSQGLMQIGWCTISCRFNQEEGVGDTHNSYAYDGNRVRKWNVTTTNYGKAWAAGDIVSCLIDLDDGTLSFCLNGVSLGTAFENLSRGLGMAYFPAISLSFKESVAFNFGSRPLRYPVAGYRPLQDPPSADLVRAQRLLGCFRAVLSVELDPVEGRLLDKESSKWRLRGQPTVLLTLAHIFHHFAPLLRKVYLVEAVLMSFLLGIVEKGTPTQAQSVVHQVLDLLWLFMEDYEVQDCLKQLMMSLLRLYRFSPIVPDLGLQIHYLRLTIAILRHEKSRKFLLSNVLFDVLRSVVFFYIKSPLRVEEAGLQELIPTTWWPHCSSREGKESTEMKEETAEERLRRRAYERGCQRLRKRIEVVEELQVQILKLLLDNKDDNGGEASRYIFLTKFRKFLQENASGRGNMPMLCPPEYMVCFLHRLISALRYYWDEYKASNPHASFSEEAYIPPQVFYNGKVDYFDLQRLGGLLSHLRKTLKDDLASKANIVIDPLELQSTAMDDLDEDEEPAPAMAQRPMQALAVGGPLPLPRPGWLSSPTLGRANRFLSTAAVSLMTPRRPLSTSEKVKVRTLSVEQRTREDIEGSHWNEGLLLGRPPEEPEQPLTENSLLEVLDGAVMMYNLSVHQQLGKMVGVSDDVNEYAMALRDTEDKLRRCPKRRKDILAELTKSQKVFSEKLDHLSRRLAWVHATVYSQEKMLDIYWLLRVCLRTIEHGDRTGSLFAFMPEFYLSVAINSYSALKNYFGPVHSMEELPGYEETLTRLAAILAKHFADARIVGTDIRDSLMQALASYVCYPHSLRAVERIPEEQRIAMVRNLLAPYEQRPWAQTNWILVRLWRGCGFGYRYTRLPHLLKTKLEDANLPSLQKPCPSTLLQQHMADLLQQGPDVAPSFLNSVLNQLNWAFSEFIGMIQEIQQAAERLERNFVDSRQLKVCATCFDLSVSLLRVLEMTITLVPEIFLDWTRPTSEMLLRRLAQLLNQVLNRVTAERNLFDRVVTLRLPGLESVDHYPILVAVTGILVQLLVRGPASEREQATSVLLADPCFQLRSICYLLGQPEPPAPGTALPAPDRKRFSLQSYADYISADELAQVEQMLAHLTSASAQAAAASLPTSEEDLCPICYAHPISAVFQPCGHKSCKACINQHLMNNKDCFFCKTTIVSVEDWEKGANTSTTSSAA

Tests used:
Test in all cases: log2 fold change, soluble protein after heating vs DMSO (PISA); higher = thermal stabilisation; K562 lysate, 10 uM; active = over 0.2 and 3.5 SD of the protein, either way, in both replicates (recomputed)
nilotinib = compound: Cc1cn(-c2cc(NC(=O)c3ccc(C)c(Nc4nccc(-c5cccnc5)n4)c3)cc(C(F)(F)F)c2)cn1 [nilotinib]
Procedure, shortened: (§1)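 Dounce homogenisation of K562 pellets in PBS pH 7.4 with 1 mM MgCl2 produced a crude extract, used at 1 mg/mL protein. Exposure to 10 μM compound lasted 30 min, and aliquots were then heated for 3 min across 48°C-58°C, pooled and brought to 0.5% NP-40 at 4°C. The supernatant after 21,000xg for 90 min was quantified by TMTpro 16plex LC-MS/MS with channel sums equalised. Duplicate values are given as log-two fold change in thermal stability relative to solvent controls.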

[1] = compound: Cc1nc(Nc2n[nH]c3c2CN(C(=O)N[C@H](CN(C)C)c2ccccc2)C3(C)C)c2sccc2n1
Procedure, shortened: as §1

dasatinib = compound: Cc1nc(Nc2ncc(C(=O)Nc3c(C)cccc3Cl)s2)cc(N2CCN(CCO)CC2)n1 [dasatinib]
Procedure, shortened: as §1

[2] = compound: Cc1ncc(-c2ccnc(Nc3ccc(S(C)(=O)=O)cc3)n2)n1C(C)C
Procedure, shortened: as §1

[3] = compound: Cn1cc(-c2ccc3c(c2)CCN3C(=O)Cc2cccc(C(F)(F)F)c2)c2c(N)ncnc21
Procedure, shortened: as §1

quisinostat = compound: Cn1cc(CNCC2CCN(c3ncc(C(=O)NO)cn3)CC2)c2ccccc21 [quisinostat]
Procedure, shortened: as §1

tipifarnib = compound: Cn1cncc1[C@@](N)(c1ccc(Cl)cc1)c1ccc2c(c1)c(-c1cccc(Cl)c1)cc(=O)n2C [tipifarnib]
Procedure, shortened: as §1

[4] = compound: NC(=O)Nc1cc(-c2cccc(F)c2)sc1C(=O)N[C@H]1CCCNC1
Procedure, shortened: as §1

[5] = compound: NC(=O)c1cnc(N[C@@H]2CCCC[C@@H]2N)nc1Nc1cccc(-n2nccn2)c1
Procedure, shortened: as §1

[6] = compound: NC1(c2ccc(-c3nc4ccn5c(=O)[nH]nc5c4cc3-c3ccccc3)cc2)CCC1
Procedure, shortened: as §1

[7] = compound: NCC(=O)Nc1ccc(-n2nc(C(F)(F)F)cc2-c2ccc3c(ccc4ccccc43)c2)cc1
Procedure, shortened: as §1

vorinostat = compound: O=C(CCCCCCC(=O)Nc1ccccc1)NO [vorinostat]
Procedure, shortened: as §1

silmitasertib = compound: O=C(O)c1ccc2c(c1)nc(Nc1cccc(Cl)c1)c1ccncc12 [silmitasertib]
Procedure, shortened: as §1

[8] = compound: O=C1NC(=O)C(c2cnc3ccccn23)=C1c1cn2c3c(cc(F)cc13)CN(C(=O)N1CCCCC1)CC2
Procedure, shortened: as §1

entospletinib = compound: c1cn2cc(-c3ccc4cn[nH]c4c3)nc(Nc3ccc(N4CCOCC4)cc3)c2n1 [entospletinib]
Procedure, shortened: as §1

Measured: log2 fold change

RIOK1 (UniProt Q9BRS2)
inactive: nilotinib -0.018 | [1] 0.06 | dasatinib -0.018 | [2] 0.072 | [3] 0.008 | quisinostat -0.007 | tipifarnib 0.003 | [4] -0.012 | [5] -0.033 | [6] -0.072 | [7] 0.016 | vorinostat -0.035 | [8] -0.02 | entospletinib 0.029
active: silmitasertib 0.358

RNF40 (UniProt O75150)
inactive: nilotinib -0.022 | [1] 0.009 | dasatinib -0.012 | [2] 0.003 | [3] 0.031 | quisinostat -0.029 | tipifarnib 0.003 | [4] 0.031 | [5] 0.009 | [6] -0.012 | [7] 0.015 | silmitasertib 0.032 | [8] -0.007 | entospletinib -0.022
active: vorinostat -0.237

RMI1 (UniProt Q9H9A7)
inactive: nilotinib 0 | [1] -0.05 | dasatinib -0.041 | [2] -0.017 | [3] 0.05 | quisinostat -0.012 | tipifarnib -0.146 | [4] 0.056 | [5] 0.004 | [6] 0.063 | [7] 0.102 | vorinostat -0.101 | silmitasertib 0.003 | [8] 0.007 | entospletinib 0.008

RLF (UniProt Q13129)
inactive: nilotinib -0.164 | [1] -0.131 | dasatinib 0.108 | [2] -0.037 | [3] -0.132 | quisinostat 0.107 | tipifarnib -0.093 | [4] 0.032 | [5] 0.049 | [8] 0.047

RIOX1 (UniProt Q9H6W3)
inactive: nilotinib 0.085 | [1] -0.037 | dasatinib -0.088 | [2] 0 | [3] 0.012 | quisinostat -0.029 | tipifarnib 0.223 | [4] 0.05 | [5] 0.074 | [6] -0.04 | [7] 0.04 | vorinostat -0.147 | silmitasertib -0.101 | [8] -0.003 | entospletinib -0.04

RIC1 (UniProt Q4ADV7)
inactive: nilotinib -0.069 | [1] 0.033 | dasatinib 0.001 | [2] 0.086 | [3] 0.008 | quisinostat -0.169 | tipifarnib 0.085 | [4] 0.097 | [5] -0.085 | [6] 0.002 | [7] -0.053 | vorinostat -0.193 | silmitasertib 0.057 | [8] -0.06 | entospletinib 0.045

RNF123 (UniProt Q5XPI4)
active: vorinostat -0.385
inactive: nilotinib 0.012 | [1] -0.013 | dasatinib -0.059 | [2] 0.022 | [3] 0.054 | quisinostat -0.046 | tipifarnib -0.006 | [4] 0.04 | [5] 0.019 | [6] 0.01 | [7] 0.014 | silmitasertib -0.016 | [8] -0.002 | entospletinib 0

RNF113A (UniProt O15541)
inactive: nilotinib 0.003 | [1] -0.004 | dasatinib -0.015 | [2] 0.007 | [3] 0.04 | quisinostat 0.063 | tipifarnib -0.019 | [4] -0.068 | [5] -0.005 | [6] -0.002 | [7] 0.009 | vorinostat -0.02 | silmitasertib -0.03 | [8] -0.004 | entospletinib 0.02

RPL31 (UniProt P62899)
inactive: nilotinib 0.007 | [1] -0.034 | dasatinib 0.046 | [2] -0.036 | [3] -0.038 | quisinostat 0.043 | tipifarnib 0.021 | [4] -0.004 | [5] -0.018 | [6] 0.005 | [7] 0.003 | vorinostat 0.126 | silmitasertib 0.007 | [8] 0.06 | entospletinib 0.021
